Measurements as given in patent US8110687B2, “Bicyclic compounds with kinase inhibitory activity” (Millennium Pharmaceuticals, Inc., priority 2005, dated 2012).
Like-named read-outs stand apart in the source and are kept apart here. Some results were stated once for a whole list of compounds, not compound by compound.

Sequences of proteins named here, by UniProt entry; tags and fusion partners are left off.
UniProt P15056, whole entry, stated change not applied: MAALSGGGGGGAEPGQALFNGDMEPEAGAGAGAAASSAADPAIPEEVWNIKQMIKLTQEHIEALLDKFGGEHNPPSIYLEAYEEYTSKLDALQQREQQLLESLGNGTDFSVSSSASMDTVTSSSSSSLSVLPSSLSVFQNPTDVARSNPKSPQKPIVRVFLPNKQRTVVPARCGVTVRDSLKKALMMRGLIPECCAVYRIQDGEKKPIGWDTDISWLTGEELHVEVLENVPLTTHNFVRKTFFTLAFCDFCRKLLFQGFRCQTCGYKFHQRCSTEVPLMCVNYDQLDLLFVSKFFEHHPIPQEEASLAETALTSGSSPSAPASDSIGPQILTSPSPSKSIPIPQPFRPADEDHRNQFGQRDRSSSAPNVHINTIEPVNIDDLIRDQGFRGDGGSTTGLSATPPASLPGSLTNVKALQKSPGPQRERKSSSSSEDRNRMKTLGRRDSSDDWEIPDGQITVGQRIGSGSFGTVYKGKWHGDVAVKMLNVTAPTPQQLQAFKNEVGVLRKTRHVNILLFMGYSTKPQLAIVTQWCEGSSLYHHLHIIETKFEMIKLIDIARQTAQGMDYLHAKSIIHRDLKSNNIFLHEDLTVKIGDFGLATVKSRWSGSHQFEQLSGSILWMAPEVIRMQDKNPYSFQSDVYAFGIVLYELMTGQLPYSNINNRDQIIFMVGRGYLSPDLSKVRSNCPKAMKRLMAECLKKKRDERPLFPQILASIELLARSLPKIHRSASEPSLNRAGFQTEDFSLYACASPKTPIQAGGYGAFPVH

Target: B-Raf (V599E or Wild Type) (Homo sapiens, UniProt P15056)
Assay: B-Raf Flash Plate assay
Type: biochemical
Details: Peptide 118, 0.5 μM ATP, 60 minutes
[1] = read-out: IC50, inhibition of the enzyme in B-Raf Flash Plate assay
[2] = read-out: IC50 in B-Raf Flash Plate assay

| IC50 [1] [µM] | IC50 [2] [µM] | SMILES |
| --- | --- | --- |
| ≤ 1 | < 0.05 | CC(C)(C)OC(=O)NCc1cc(NC(=O)C2=Cc3cc(Oc4ccnc(NC(=O)C5CC5)c4)ccc3OC2)cc(C(F)(F)F)c1 [Compound I-398, tert-butyl [3-({[6-({2-[(cyclopropylcarbonyl)amino]pyridin-4-yl}oxy)-2H-chromen-3-yl]carbonyl}amino)-5-(trifluoromethyl)benzyl]carbamate] |
| ≤ 1 |  | CNC(=O)c1cc(Oc2ccc3c(c2)CC(C(=O)Nc2cc(N)cc(C(F)(F)F)c2)CC3)ccn1 (centres unmarked) [Compound I-22, 4-{[7-({[3-amino-5-(trifluoromethyl)phenyl]amino}carbonyl)-5,6,7,8-terahydronaphthalen-2-yl]oxy}-N-methylpyridine-2-carboxamide] |
| ≤ 1 | < 0.05 | CCN1CCN(Cc2cc(NC(=O)C3CCc4ccc(Oc5ccnc(NC(C)=O)c5)cc4C3)cc(C(F)(F)F)c2)CC1 (centres unmarked) [Compound I-181, 7-{[2-(acetylamino)pyridin-4-yl]oxy}-N-[3-[(4-ethylpiperazin-1-yl)methyl]-5-(trifluoromethyl)phenyl]-1,2,3,4-tetrahydronaphthalene-2-carboxamide] |
| ≤ 1 |  | NCc1cc(NC(=O)C2CCc3ccc(Oc4ccnc(-n5cccn5)c4)cc3C2)cc(C(F)(F)F)c1 (centres unmarked) [Compound I-400, N-[3-(aminomethyl)-5-(trifluoromethyl)phenyl]-7-{[2-(1H-pyrazol-1-yl)pyridin-4-yl]oxy}-1,2,3,4-tetrahydronaphthalene-2-carboxamide] |
| ≤ 1 | < 0.05 | CNC(=O)c1cc(Oc2ccc3c(c2)CC(C(=O)Nc2cc(CN)cc(C(F)(F)F)c2)CC3)ccn1 (centres unmarked) [Compound I-31, 4-{[7-({[3-(aminomethyl)-5-(trifluoromethyl)phenyl]amino}carbonyl)-5,6,7,8-tetrahydronaphthalen-2-yl]oxy}-N-methylpyridine-2-carboxamide] |
| ≤ 1 | < 0.05 | N=C(N)c1cc(Oc2ccc3ccc(C(=O)Nc4ccc(CN)c(C(F)(F)F)c4)cc3c2)ccn1 [Compound I-381, 7-({2-[amino(imino)methyl]pyridin-4-yl}oxy)-N-[4-(aminomethyl)-3-(trifluoromethyl)phenyl]-2-naphthamide] |
| ≤ 1 | < 0.05 | CNC(=O)c1cc(Oc2ccc3c(c2)C[C@@H](C(=O)Nc2cc(CN)cc(C(F)(F)F)c2)CC3)ccn1 [Compound I-313, 4-{[(7S)-7-({[3-(aminomethyl)-5-(trifluoromethyl)phenyl]amino}carbonyl)-5,6,7,8-tetrahydronaphthalen-2-yl]oxy}-N-methylpyridine-2-carboxamide] |
| ≤ 1 | < 0.05 | CNC(=O)c1cc(Oc2ccc3c(c2)CC(NC(=O)c2ccc(Cl)c(C(F)(F)F)c2)CC3)ccn1 (centres unmarked) [Compound I-444, 4-[(7-{[4-chloro-3-(trifluoromethyl)benzoyl]amino}-5,6,7,8-tetrahydronaphthalen-2-yl)oxy]-N-methylpyridine-2-carboxamide] |
| ≤ 1 | < 0.05 | CC(C)(C)c1cccc(NC(=O)c2ccc3ccc(Oc4ccnc(CN)c4)cc3c2)c1 [Compound I-397, 7-{[2-(aminomethyl)pyridin-4-yl]oxy}-N-(3-tert-butylphenyl)-2-naphthamide] |
| ≤ 1 | < 0.05 | COC(=O)Nc1cc(Oc2ccc3ccc(C(=O)Nc4cc(OCCN5CCCC5)cc(C(F)(F)F)c4)cc3c2)ccn1 [Compound I-241, methyl (4-{[7-({[3-(2-pyrrolidin-1-ylethoxy)-5-(trifluoromethyl)phenyl]amino}carbonyl)-2-naphthyl]oxy}pyridin-2-yl)carbamate] |
| ≤ 1 | < 0.05 | CN1CCN(C(=O)c2c[nH]c(-c3cc(Oc4ccc5ccc(C(=O)Nc6cccc(C(C)(C)C)c6)cc5c4)ccn3)n2)CC1 [Compound I-377, N-(3-tert-butylphenyl)-7-[(2-{4-[(4-methylpiperazin-1-yl)carbonyl]-1H-imidazol-2-yl}pyridin-4-yl)oxy]-2-naphthamide] |
| ≤ 1 | < 0.05 | CN(Cc1cc(NC(=O)C2=Cc3cc(Oc4ccnc(NC(=O)C5CC5)c4)ccc3OC2)cc(C(F)(F)F)c1)C(=O)OC(C)(C)C [Compound I-429, tert-butyl [3-({[6-({2-[(cyclopropylcarbonyl)amino]pyridin-4-yl}oxy)-2H-chromen-3-yl]carbonyl}amino)-5-(trifluoromethyl)benzyl]methylcarbamate] |
| ≤ 1 | < 0.05 | CN1CCN(Cc2ccc(NC(=O)C3CCc4ccc(Oc5ccnc(C6=NCCN6)c5)cc4C3)cc2C(F)(F)F)CC1 (centres unmarked) [Compound I-424, 7-{[2-(4,5-dihydro-1H-imidazol-2-yl)pyridin-4-yl]oxy}-N-[4-[(4-methylpiperazin-1-yl)methyl]-3-(trifluoromethyl)phenyl]-1,2,3,4-tetrahydronaphthalene-2-carboxamide] |
| ≤ 1 | < 0.05 | CC(C)(C)c1cccc(NC(=O)c2ccc3ccc(Oc4ccnc(NC(=O)OCCN5CCCC5)c4)cc3c2)c1 [Compound I-196, 2-pyrrolidin-1-ylethyl {4-[(7-{[(3-tert-butylphenyl)amino]carbonyl}-2-naphthyl)oxy]pyridin-2-yl}carbamate] |
| ≤ 1 | < 0.05 | COc1cc(NC(=O)c2ccc3ccc(Oc4ccnc(C5=NCCN5)c4)cc3c2)cc(C(F)(F)F)c1 [Compound I-33, 7-{[2-(4,5-dihydro-1H-imidazol-2-yl)pyridin-4-yl]oxy}-N-[3-methoxy-5-(trifluoromethyl)phenyl]-2-naphthamide] |
| ≤ 1 | < 0.05 | COC(=O)Nc1cc(Oc2ccc3c(c2)C[C@H](C(=O)Nc2cc(CN)cc(C(F)(F)F)c2)CC3)ccn1 [Compound I-323, methyl (4-{[(7R)-7-({[3-(aminomethyl)-5-(trifluoromethyl)phenyl]amino}carbonyl)-5,6,7,8-tetrahydronaphthalen-2-yl]oxy}pyridin-2-yl)carbamate] |
| ≤ 1 | < 0.05 | CNC(=O)c1cc(Oc2cc3c(cc2F)CCC(C(=O)Nc2cc(CN)cc(C(F)(F)F)c2)C3)ccn1 (centres unmarked) [Compound I-285, 4-{[7-({[3-(aminomethyl)-5-(trifluoromethyl)phenyl]amino}carbonyl)-3-fluoro-5,6,7,8-tetrahydronaphthalen-2-yl]oxy}-N-methylpyridine-2-carboxamide] |
| ≤ 1 |  | CC(C)(C)c1cccc(NC(=O)C2COc3ccc(Oc4ccnc(C5=NCCN5)c4)cc3C2)c1 (centres unmarked) [Compound I-349, N-(3-tert-butylphenyl)-6-{[2-(4,5-dihydro-1H-imidazol-2-yl)pyridin-4-yl]oxy}chromane-3-carboxamide] |
| ≤ 1 | < 0.05 | CCN1CCN(Cc2cc(NC(=O)C3CCc4ccc(Oc5ccnc(NC(=O)C6CC6)c5)cc4C3)cc(C(F)(F)F)c2)CC1 (centres unmarked) [Compound I-195, 7-({2-[(cyclopropylcarbonyl)amino]pyridin-4-yl}oxy)-N-[3-[(4-ethylpiperazin-1-yl)methyl]-5-(trifluoromethyl)phenyl]-1,2,3,4-tetrahydronaphthalene-2-carboxamide] |
| ≤ 1 | < 0.05 | CCOC(=O)Nc1cc(Oc2ccc3c(c2)CC(C(=O)Nc2cc(CN)cc(C(F)(F)F)c2)CC3)ccn1 (centres unmarked) [Compound I-336, Ethyl (4-{[7-({[3-(aminomethyl)-5-(trifluoromethyl)phenyl]amino}carbonyl)-5,6,7,8-tetrahydronaphthalen-2-yl]oxy}pyridin-2-yl)carbamate] |
| ≤ 1 | < 0.05 | CCNCc1cc(NC(=O)C2CCc3ccc(Oc4ccnc(NC(=O)C5CC5)c4)cc3C2)cc(C(F)(F)F)c1 (centres unmarked) [Compound I-250, 7-({2-[(cyclopropylcarbonyl)amino]pyridin-4-yl}oxy)-N-[3-[(ethylamino)methyl]-5-(trifluoromethyl)phenyl]-1,2,3,4-tetrahydronaphthalene-2-carboxamide] |
| ≤ 1 |  | O=C(Nc1ccc(I)c(C(F)(F)F)c1)c1ccc2ccc(Oc3ccnc(C4=NCCN4)c3)cc2c1 [Compound I-6, 7-{[2-(4,5-dihydro-1H-imidazol-2-yl)pyridin-4-yl]oxy}-N-[4-iodo-3-(trifluoromethyl)phenyl]-2-naphthamide] |
| ≤ 1 | < 0.05 | CNC(=O)c1cc(Oc2ccc3ccc(C(=O)Nc4ccc(Cl)c(C(F)(F)F)c4)cc3c2)ccn1 [Compound I-5, 4-{[7-({[4-chloro-3-(trifluoromethyl)phenyl]amino}carbonyl)-2-naphthyl]oxy}-N-methylpyridine-2-carboxamide] |
| ≤ 1 | < 0.05 | CC(C)(C)c1cccc(NC(=O)C2CCc3ccc(Oc4ccnc(-c5cccnc5)c4)cc3C2)c1 (centres unmarked) [Compound I-257, 7-(2,3′-bipyridin-4-yloxy)-N-(3-tert-butylphenyl)-1,2,3,4-tetrahydronaphthalene-2-carboxamide] |
| ≤ 1 | < 0.05 | CNC(=O)c1cc(Oc2ccc3c(c2)CN(C(=O)Nc2ccc(Cl)c(C(F)(F)F)c2)CC3)ccn1 [Compound I-164, N-[4-chloro-3-(trifluoromethyl)phenyl]-7-({2-[(methylamino)carbonyl]pyridin-4-yl}oxy)-3,4-dihydroisoquinoline-2(1H)-carboxamide] |
| ≤ 1 | < 0.05 | CNC(=O)c1cc(Oc2ccc3c(c2)CC(C(=O)Nc2cc(CNCCN4CCCC4)cc(C(F)(F)F)c2)CC3)ccn1 (centres unmarked) [Compound I-371, N-methyl-4-{[7-({[3-{[(2-pyrrolidin-1-ylethyl)amino]methyl}-5-(trifluoromethyl)phenyl]amino}carbonyl)-5,6,7,8-tetrahydronaphthalen-2-yl]oxy}pyridine-2-carboxamide] |
| ≤ 1 | < 0.05 | COC(=O)NCc1cc(Oc2ccc3c(c2)CC(C(=O)Nc2cccc(C(C)(C)C)c2)CC3)ccn1 (centres unmarked) [Compound I-380, methyl ({4-[(7-{[(3-tert-butylphenyl)amino]carbonyl}-5,6,7,8-tetrahydronaphthalen-2-yl)oxy]pyridin-2-yl}methyl)carbamate] |
